Source: US20240368086A1, “COMPOUND, RUBBER BLEND CONTAINING THE COMPOUND, VEHICLE TIRE COMPRISING THE RUBBER BLEND IN AT LEAST ONE COMPONENT, PROCESS FOR PRODUCING THE COMPOUND, AND USE OF THE COMPOUND AS AN AGEING PROTECTANT AND/OR ANTIOZONANT AND/OR DYE” (Continental Reifen Deutschland GmbH, priority 2021, published 2024)

Test: Measurement of oxidation induction time (OIT) by DSC
Conditions: substance together with polymer LIR-50 (Kuraray), isothermal 180° C., switch from N2 to O2 atmosphere (50 mL/min), oxidation peak by DSC; measurement accuracy ± 10 minutes

CC(C)CC(C)Nc1ccc2[nH]c3c(c(=O)c2c1)CCCC3 (centres unmarked) [7-((4-methylpentan-2-yl)amino)-1,3,4,10-tetrahydroacridin-9(2H)-one]
Time (time in minutes to oxidation, oxidation induction time): 212 ± 10 min

CC(C)CC(C)Nc1ccc(Nc2ccccc2)cc1 (centres unmarked) [6-PPD, N-(1,3-dimethylbutyl)-N′-phenyl-p-phenylenediamine]
Time (time in minutes to oxidation, oxidation induction time): 116 ± 10 min
